# The other results are listed elsewhere or left out.
# Legend:
# Experiment in all cases: glycan array binding signal (z-score within array); higher = stronger binding
# Details in all cases: glycan notation: IUPAC condensed, linker removed
# [1] = target: GlcNAc(b1-3)Man
# How it was run: (§1)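 Glycan array binding is given as a within-array Z-score, which can be read as non-binding when negative. The arrays, 3228 of them, came from the Consortium for Functional Glycomics database and were retained only where the protein sequence was available. Z-scores were averaged across arrays of the same protein sequence at different concentrations or buffers and across linkers.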
# [2] = target: GlcNAc(b1-3)[GlcNAc(b1-4)][GlcNAc(b1-6)]GlcNAc
# How it was run: as §1
# [3] = target: GlcNAc(b1-3)[GlcNAc(b1-6)]Gal(b1-4)GlcNAc
# How it was run: as §1
# [4] = target: GlcNAc(b1-3)[GlcNAc(b1-6)]GalNAc
# How it was run: as §1
# [5] = target: GlcNAc(b1-4)Gal(b1-4)GlcNAc
# How it was run: as §1
# [6] = target: GlcNAc(b1-4)GlcNAc
# How it was run: as §1
# [7] = target: GlcNAc(b1-4)GlcNAc(b1-4)GlcNAc
# How it was run: as §1
# [8] = target: GlcNAc(b1-4)GlcNAc(b1-4)GlcNAc(b1-4)GlcNAc(b1-4)GlcNAc
# How it was run: as §1
# [9] = target: GlcNAc(b1-4)GlcNAc(b1-4)GlcNAc(b1-4)GlcNAc(b1-4)GlcNAc(b1-4)GlcNAc
# How it was run: as §1
# [10] = target: GlcNAc(b1-4)[GlcNAc(b1-6)]GalNAc
# How it was run: as §1
# [11] = target: GlcNAc(b1-6)Gal(b1-4)GlcNAc
# How it was run: as §1
# [12] = target: GlcNAc(b1-6)GalNAc
# How it was run: as §1
# [13] = target: GlcNAc6S(b1-3)Gal(b1-4)GlcNAc
# How it was run: as §1
# [14] = target: Kdn(a2-3)Gal(b1-3)GalNAc
# How it was run: as §1
# [15] = target: Kdn(a2-3)Gal(b1-3)GlcNAc
# How it was run: as §1
# [16] = target: Kdn(a2-3)Gal(b1-4)Glc
# How it was run: as §1
# [17] = target: Kdn(a2-3)Gal(b1-4)GlcNAc
# How it was run: as §1
# [18] = target: Kdn(a2-3)Gal(b1-4)[Fuc(a1-3)]GlcNAc
# How it was run: as §1
# [19] = target: Kdn(a2-6)Gal(b1-4)GlcNAc
# How it was run: as §1
# [20] = target: Man(a1-2)Man(a1-2)Man(a1-3)Man
# How it was run: as §1
# [21] = target: Man(a1-2)Man(a1-2)Man(a1-6)[Man(a1-3)]Man
# How it was run: as §1
# [22] = target: Man(a1-2)Man(a1-3)Man
# How it was run: as §1
# [23] = target: Man(a1-2)Man(a1-3)[Man(a1-2)Man(a1-6)]Man
# How it was run: as §1
# [24] = target: Man(a1-2)Man(a1-3)[Man(a1-2)Man(a1-6)]Man(a1-6)[Man(a1-2)Man(a1-2)Man(a1-3)]Man
# How it was run: as §1
# [25] = target: Man(a1-2)Man(a1-3)[Man(a1-2)Man(a1-6)]Man(a1-6)[Man(a1-2)Man(a1-2)Man(a1-3)]Man(b1-4)GlcNAc(b1-4)GlcNAc
# How it was run: as §1
# [26] = target: Man(a1-2)Man(a1-3)[Man(a1-6)]Man(a1-6)[Man(a1-2)Man(a1-3)]Man(b1-4)GlcNAc(b1-4)GlcNAc
# How it was run: as §1
# [27] = target: Man(a1-2)Man(a1-6)[Man(a1-3)]Man(a1-6)[Man(a1-2)Man(a1-2)Man(a1-3)]Man
# How it was run: as §1
# [28] = target: Man(a1-2)Man(a1-6)[Man(a1-3)]Man(a1-6)[Man(a1-2)Man(a1-2)Man(a1-3)]Man(b1-4)GlcNAc(b1-4)GlcNAc
# How it was run: as §1
# [29] = target: Man(a1-3)[Man(a1-6)]Man
# How it was run: as §1
# [30] = target: Man(a1-3)[Man(a1-6)]Man(a1-6)[Man(a1-2)Man(a1-3)]Man(b1-4)GlcNAc(b1-4)GlcNAc
# How it was run: as §1
# [31] = target: Man(a1-3)[Man(a1-6)]Man(a1-6)[Man(a1-3)]Man
# How it was run: as §1
# [32] = target: Man(a1-3)[Man(a1-6)]Man(a1-6)[Man(a1-3)]Man(b1-4)GlcNAc(b1-4)GlcNAc
# How it was run: as §1
# [33] = target: Man(a1-3)[Man(a1-6)]Man(b1-4)GlcNAc(b1-4)GlcNAc
# How it was run: as §1
# [34] = target: Man(a1-3)[Man(a1-6)]Man(b1-4)GlcNAc(b1-4)[Fuc(a1-6)]GlcNAc
# How it was run: as §1
# [35] = target: Man(a1-6)Man
# How it was run: as §1
# [36] = target: Man(b1-4)GlcNAc
# How it was run: as §1
# [37] = target: MurNAc(b1-4)GlcNAc
# How it was run: as §1
# [38] = target: Neu5Ac(a2-3)Gal
# How it was run: as §1
binder,measurement,setting,value
Aap lectin (Staphylococcus epidermidis) (protein) VNLNYSSPFMSLLSMPADSSSNNTKNTIDIPPTTVKGRDNYDFYGRVDIESNPTDLNATNLTRYNYGQPPGTTTAGAVQFKNQVSFDKDFDFNIRVANNRQSNTTGADGWGFMFSKKDGDDFLKNGGILREKGTPSAAGFRIDTGYYNNDPLDKIQKQAGQGYRGYGTFVKNDSQGNTSKVGSGTPSTDFLNYADNTTNDLDGKFHGQKLNNVNLKYNASNQTFTATYAGKTWTATLSELGLSPTDSYNFLVTSS,glycan array binding signal (z-score),[1],-0.471
same,glycan array binding signal (z-score),[2],-0.92
same,glycan array binding signal (z-score),[3],-0.895
same,glycan array binding signal (z-score),[4],0.321
same,glycan array binding signal (z-score),[5],-0.856
same,glycan array binding signal (z-score),[6],0.252
same,glycan array binding signal (z-score),[7],-0.883
same,glycan array binding signal (z-score),[8],-0.856
same,glycan array binding signal (z-score),[9],0.264
same,glycan array binding signal (z-score),[10],-0.382
same,glycan array binding signal (z-score),[11],0.945
same,glycan array binding signal (z-score),[12],0.291
same,glycan array binding signal (z-score),[13],-0.674
same,glycan array binding signal (z-score),[14],1.08
same,glycan array binding signal (z-score),[15],-0.575
same,glycan array binding signal (z-score),[16],0.31
same,glycan array binding signal (z-score),[17],1.39
same,glycan array binding signal (z-score),[18],-0.275
same,glycan array binding signal (z-score),[19],-0.737
same,glycan array binding signal (z-score),[20],-0.879
same,glycan array binding signal (z-score),[21],0.535
same,glycan array binding signal (z-score),[22],-0.138
same,glycan array binding signal (z-score),[23],-0.905
same,glycan array binding signal (z-score),[24],-0.858
same,glycan array binding signal (z-score),[25],-0.884
same,glycan array binding signal (z-score),[26],-0.917
same,glycan array binding signal (z-score),[27],-0.62
same,glycan array binding signal (z-score),[28],0.518
same,glycan array binding signal (z-score),[29],-0.808
same,glycan array binding signal (z-score),[30],1.23
same,glycan array binding signal (z-score),[31],0.338
same,glycan array binding signal (z-score),[32],1.5
same,glycan array binding signal (z-score),[33],-0.71
same,glycan array binding signal (z-score),[34],-0.887
same,glycan array binding signal (z-score),[35],-0.62
same,glycan array binding signal (z-score),[36],0.586
same,glycan array binding signal (z-score),[37],-0.784
same,glycan array binding signal (z-score),[38],-0.729

# At a glance, part of the list above:
binder,measurement,setting,value
Aap lectin (Staphylococcus epidermidis) (protein) VNLNYSSPFMSLLSMPADSSSNNTKNTIDIPPTTVKGRDNYDFYGRVDIESNPTDLNATNLTRYNYGQPPGTTTAGAVQFKNQVSFDKDFDFNIRVANNRQSNTTGADGWGFMFSKKDGDDFLKNGGILREKGTPSAAGFRIDTGYYNNDPLDKIQKQAGQGYRGYGTFVKNDSQGNTSKVGSGTPSTDFLNYADNTTNDLDGKFHGQKLNNVNLKYNASNQTFTATYAGKTWTATLSELGLSPTDSYNFLVTSS,glycan array binding signal (z-score),[1],-0.471
same,glycan array binding signal (z-score),[2],-0.92
same,glycan array binding signal (z-score),[3],-0.895
same,glycan array binding signal (z-score),[4],0.321
same,glycan array binding signal (z-score),[5],-0.856
same,glycan array binding signal (z-score),[6],0.252
same,glycan array binding signal (z-score),[7],-0.883
same,glycan array binding signal (z-score),[8],-0.856
same,glycan array binding signal (z-score),[9],0.264

# Source: the supplement of paper PMC8728848
